Reference: PubChem BioAssay AID248 (DTP/NCI, 2004)
The list does not hold the whole screen: it gathers tests that were run many times, whatever their T/C, doses with no T/C, and many T/C values between a quarter and a half above the control. Other doses and runs of a compound stand elsewhere. T/C: endpoint of the treated group in % of that of the vehicle group. Some doses have a count of surviving animals in place of a T/C: the source files T/C as zero there, which appears to mark a toxic dose or a test without result, not a measured value. Survivors were counted at the toxicity check, usually on the fifth day, unless a day is given; later deaths do not show. Schedule codes are those of the source, read here as Q, the interval in days (D) or hours (H), X, the number of doses. Some schedules carry Z or #; the key to these is not given. For survival time, the PubChem record calls one and a half times the control and up active, and a quarter to a half above the control has no call in these data; cut-offs in other NCI protocols can differ. Some T/C values carry the count of animals alive at the toxicity check (mostly the fifth day); without a count, all were alive then. Some doses were run more than once; their values stand side by side, smallest first. Additions like (4×) stand for listed records that agree.

Test system: L1210 leukemia ip in BDF1 mice, survival T/C
Assay: NCI In Vivo Anticancer Drug Screen. Data for tumor model L1210 Leukemia (intraperitoneal) in B6D2F1 (BDF1) mice
Details: T/C endpoint: mean survival time, higher T/C = longer survival
[1] = dose: 222.0 mg/kg/injection, schedule: Q01DX Z (ip), vehicle: methylcellulose (MC)
[2] = dose: 333.0 mg/kg/injection, schedule: Q01DX Z (ip), vehicle: methylcellulose (MC)

Q: `Nc1n[nH]c(N)n1` was tested. Which T/C (dose: 100.0 mg/kg/injection, schedule: Q03HX024 (ip), vehicle: saline) did it give?
A: Its T/C is 115, 117, 121, 122 % of control.

Q: What about the T/C (dose: 100.0 mg/kg/injection, schedule: Q#A X010 (ip), vehicle: saline) of the same molecule?
A: Its T/C is 134 % of control.

Q: What about the T/C (dose: 100.0 mg/kg/injection, schedule: Q#A X020 (ip), vehicle: saline) of the same molecule?
A: The T/C was 129 % of control.

Q: And the T/C (dose: 112.0 mg/kg/injection, schedule: Q03HX008 (ip), vehicle: water)?
A: Its T/C is 127 % of control.

Q: And the T/C (dose: 112.0 mg/kg/injection, schedule: Q03HX024 (ip), vehicle: water)?
A: The T/C was 127 % of control.

Q: What about the T/C (dose: 112.0 mg/kg/injection, schedule: Q03HX040 (ip), vehicle: water) of the same molecule?
A: The T/C was 130 % of control.

Q: What about the T/C (dose: 112.0 mg/kg/injection, schedule: Q#A X018 (ip), vehicle: water) of the same molecule?
A: The T/C was 128 % of control.

Q: And the T/C (dose: 112.0 mg/kg/injection, schedule: Q#A X034 (ip), vehicle: water)?
A: The T/C was 129 % of control [7 of 8 alive].

Q: What about the T/C (dose: 128.0 mg/kg/injection, schedule: Q#A X022 (ip), vehicle: other) of the same molecule?
A: The T/C was 133 % of control.

Q: And the T/C (dose: 150.0 mg/kg/injection, schedule: Q03HX008 (ip), vehicle: saline)?
A: Its T/C is 126 % of control.

Q: And the T/C (dose: 150.0 mg/kg/injection, schedule: Q03HX016 (ip), vehicle: saline)?
A: The T/C was 138 % of control.

Q: What about the T/C (dose: 150.0 mg/kg/injection, schedule: Q03HX024 (ip), vehicle: saline) of the same molecule?
A: The T/C was 128, 138, 139, 149 % of control.

Q: What about the survivor count (dose: 166.0 mg/kg/injection, schedule: Q01DX Z (ip), vehicle: methylcellulose (MC)) of the same molecule?
A: The survivor count was 3 of 6.

Q: And the T/C (dose: 200.0 mg/kg/injection, schedule: Q01DX009 (ip), vehicle: Klucel (hydroxypropylcellulose) (HPC))?
A: Its T/C is 126 % of control [5 of 6 alive].

Q: What about the T/C (dose: 200.0 mg/kg/injection, schedule: Q01DX009 (ip), vehicle: saline, evaluated on day 30) of the same molecule?
A: Its T/C is 103, 110, 112, 114, 118, 122 (2×), 123, 124 (2×), 126, 127 [5 of 6 alive], 136, 137 % of control.

Q: And the T/C (dose: 200.0 mg/kg/injection, schedule: Q01DX009 (ip), vehicle: saline, evaluated on day 60)?
A: The T/C was 136 and 137 % of control.

Q: And the T/C (dose: 200.0 mg/kg/injection, schedule: Q01DX009 (ip), vehicle: saline, run until all animals had died)?
A: Its T/C is 125 % of control.

Q: What about the T/C (dose: 200.0 mg/kg/injection, schedule: Q01DX010 (ip), vehicle: saline) of the same molecule?
A: Its T/C is 134 and 146 % of control.

Q: And the T/C (dose: 200.0 mg/kg/injection, schedule: Q#A X034 (ip), vehicle: water)?
A: The T/C was 135 % of control.

Q: And the T/C [1]?
A: The T/C was 108, 119, 131 % of control.

Q: And the survivor count [1]?
A: Its survivor count is 0 of 6.

Q: And the T/C (dose: 225.0 mg/kg/injection, schedule: Q01DX009 (ip), vehicle: water)?
A: Its T/C is 138 % of control.

Q: And the T/C (dose: 225.0 mg/kg/injection, schedule: Q03HX008 (ip), vehicle: saline)?
A: The T/C was 139 % of control.

Q: And the T/C (dose: 225.0 mg/kg/injection, schedule: Q03HX008 (ip), vehicle: water)?
A: The T/C was 140 % of control.

Q: What about the T/C (dose: 225.0 mg/kg/injection, schedule: Q03HX016 (ip), vehicle: saline) of the same molecule?
A: The T/C was 148 % of control.

Q: And the T/C (dose: 225.0 mg/kg/injection, schedule: Q03HX024 (ip), vehicle: saline, evaluated on day 40)?
A: Its T/C is 129 % of control.

Q: What about the T/C (dose: 225.0 mg/kg/injection, schedule: Q03HX024 (ip), vehicle: saline, evaluated on day 45) of the same molecule?
A: The T/C was 144, 152, 155, 159 % of control.

Q: What about the T/C (dose: 225.0 mg/kg/injection, schedule: Q03HX040 (ip), vehicle: water) of the same molecule?
A: Its T/C is 136 % of control.

Q: What about the T/C (dose: 225.0 mg/kg/injection, schedule: Q12HX018 (ip), vehicle: saline) of the same molecule?
A: The T/C was 127 % of control.

Q: What about the T/C (dose: 225.0 mg/kg/injection, schedule: Q#A X034 (ip), vehicle: water) of the same molecule?
A: The T/C was 128 % of control.

Q: And the T/C (dose: 238.0 mg/kg/injection, schedule: Q03HX024 (ip), vehicle: saline, evaluated on day 5)?
A: Its T/C is 125 % of control.

Q: What about the T/C (dose: 238.0 mg/kg/injection, schedule: Q03HX024 (ip), vehicle: saline, evaluated on day 60) of the same molecule?
A: Its T/C is 125 % of control.

Q: What about the T/C (dose: 250.0 mg/kg/injection, schedule: Q01DX015 (ip), vehicle: saline) of the same molecule?
A: The T/C was 130 % of control.

Q: What about the T/C (dose: 250.0 mg/kg/injection, schedule: Q01DX Z (ip), vehicle: other) of the same molecule?
A: The T/C was 126 % of control.

Q: And the T/C (dose: 250.0 mg/kg/injection, schedule: Q01DX Z (ip), vehicle: saline)?
A: The T/C was 142 % of control.

Q: And the T/C (dose: 250.0 mg/kg/injection, schedule: Q01DX Z (ip), vehicle: water)?
A: The T/C was 139 % of control.

Q: What about the T/C (dose: 256.0 mg/kg/injection, schedule: Q#A X012 (ip), vehicle: other) of the same molecule?
A: The T/C was 127 % of control.

Q: What about the T/C (dose: 300.0 mg/kg/injection, schedule: Q06HX016 (ip), vehicle: saline) of the same molecule?
A: The T/C was 142 % of control.

Q: What about the T/C [2] of the same molecule?
A: The T/C was 108, 139, 141 % of control.

Q: What about the survivor count [2] of the same molecule?
A: Its survivor count is 3 of 6.

Q: What about the T/C (dose: 335.0 mg/kg/injection, schedule: Q03HX008 (ip), vehicle: saline) of the same molecule?
A: The T/C was 146 % of control.

Q: What about the T/C (dose: 335.0 mg/kg/injection, schedule: Q03HX024 (ip), vehicle: saline) of the same molecule?
A: The T/C was 189, 190, 203, 222 % of control.

Q: What about the T/C (dose: 350.0 mg/kg/injection, schedule: Q03HX032 (ip), vehicle: saline) of the same molecule?
A: Its T/C is 174, 188 [9 of 10 alive], 203, 222 % of control.

Q: What about the T/C (dose: 362.0 mg/kg/injection, schedule: Q03HX024 (ip), vehicle: saline, evaluated on day 5) of the same molecule?
A: Its T/C is 182 and 232 % of control.

Q: And the T/C (dose: 362.0 mg/kg/injection, schedule: Q03HX024 (ip), vehicle: saline, evaluated on day 45)?
A: Its T/C is 182 % of control.

Q: What about the T/C (dose: 362.0 mg/kg/injection, schedule: Q03HX024 (ip), vehicle: saline, evaluated on day 60) of the same molecule?
A: The T/C was 232 % of control.

Q: And the T/C (dose: 400.0 mg/kg/injection, schedule: Q01DX006 (iv), vehicle: saline)?
A: Its T/C is 132 % of control.

Q: What about the T/C (dose: 400.0 mg/kg/injection, schedule: Q01DX009 (ip), vehicle: Klucel (hydroxypropylcellulose) (HPC)) of the same molecule?
A: The T/C was 135 [5 of 6 alive] and 144 % of control [4 of 6 alive].

Q: And the T/C (dose: 400.0 mg/kg/injection, schedule: Q01DX009 (ip), vehicle: saline, evaluated on day 30)?
A: The T/C was 103, 129 (3×), 134, 135, 137, 139, 140 (2×), 143 (2×), 144, 146 % of control [5 of 6 alive].

Q: And the T/C (dose: 400.0 mg/kg/injection, schedule: Q01DX009 (ip), vehicle: saline, evaluated on day 60)?
A: The T/C was 140, 143, 145 % of control.

Q: And the T/C (dose: 400.0 mg/kg/injection, schedule: Q01DX009 (ip), vehicle: saline, run until all animals had died)?
A: Its T/C is 125 % of control.

Q: And the T/C (dose: 400.0 mg/kg/injection, schedule: Q01DX010 (im), vehicle: saline)?
A: The T/C was 130 % of control.

Q: And the T/C (dose: 400.0 mg/kg/injection, schedule: Q01DX010 (sc), vehicle: saline)?
A: The T/C was 139 % of control.

Q: What about the T/C (dose: 400.0 mg/kg/injection, schedule: Q01DX017 (ip), vehicle: water) of the same molecule?
A: Its T/C is 146 % of control.

Q: And the T/C (dose: 400.0 mg/kg/injection, schedule: Q12HX018 (ip), vehicle: water)?
A: Its T/C is 142 % of control.

Q: What about the T/C (dose: 450.0 mg/kg/injection, schedule: Q01DX005 (ip), vehicle: water) of the same molecule?
A: The T/C was 129 % of control.

Q: And the T/C (dose: 450.0 mg/kg/injection, schedule: Q03HX032 (ip), vehicle: saline)?
A: The T/C was 175, 221 (2×), 229, 294, 313 % of control.

Q: What about the T/C (dose: 450.0 mg/kg/injection, schedule: Q12HX010 (ip), vehicle: water) of the same molecule?
A: The T/C was 134 % of control.

Q: And the T/C (dose: 450.0 mg/kg/injection, schedule: Q12HX018 (ip), vehicle: water)?
A: Its T/C is 129 % of control.

Q: What about the T/C (dose: 450.0 mg/kg/injection, schedule: Q## X018 (ip), vehicle: saline) of the same molecule?
A: Its T/C is 147 % of control.

Q: And the T/C (dose: 500.0 mg/kg/injection, schedule: Q01DX Z (ip), vehicle: methylcellulose (MC))?
A: The T/C was 126 % of control.
